Assay results: patent US7354735B2, “Nucleic acid encoding fluorescent protein constructs and methods for detecting apoptosis” (Hong Kong University of Science and Technology, priority 2001, dated 2008)
Some entries share one result that the patent states for a list of compounds.

Biological target: T1, caspase-3 (Homo sapiens, UniProt P42574)
T1 sequence (P42574 29-175 limits assumed): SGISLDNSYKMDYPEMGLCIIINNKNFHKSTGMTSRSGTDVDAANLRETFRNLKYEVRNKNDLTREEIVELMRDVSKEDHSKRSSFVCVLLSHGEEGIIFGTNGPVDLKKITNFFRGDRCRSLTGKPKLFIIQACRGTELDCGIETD
T1 sequence (P42574 176-277 limits assumed): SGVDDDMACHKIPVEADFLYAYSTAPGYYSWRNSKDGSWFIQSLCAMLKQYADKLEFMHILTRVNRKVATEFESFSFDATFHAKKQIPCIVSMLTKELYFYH
Experiment: Spectrofluorometer measurement of FRET emission spectra before and after caspase-3 treatment
Format: biochemical
Conditions: excitation 433 nm
Experimental: The excitation wavelength used to excite CFP in the probe was 433 nm. −cpp32: no caspase-3 in the reaction. +cpp32: caspase-3 was added into the reaction.
The fluorescent energy transfer from CYP to YFP in the FRET probes was measured using a spectrofluorometer. When CFP was excited in each probe at the excitation wavelength of 433 nm, very little emission light was detected from the FRET probes at the known emission wavelength for CFP (480 nm). Instead, a significant amount of emitted fluorescent light was detected at the emission wavelength of YFP which peaks at 526 nm (FIG. 4). […] It was then determined whether the FRET effect was sensitive to the caspase cleavage. The FRET probes were treated with caspase-3 and analyzed using a spectrofluorometer. […] As a control, no change for the emission spectrum was observed from the CFP-YFP fusion protein which lacks the substrate sequence (FIG. 4A). Based on spectra similar to FIG. 4, it was determined the YFP (526 nm)/CFP (480 nm) emission ratio for all three FRET probes before and after caspase treatment. This YFP/CFP ratio was used to quantify the FRET effect.

| decrease of emission ratio of YFP/CFP after incubating with caspase-3 | Substance |
| --- | --- |
| 4-5 fold | sensor B: CFP-YFP FRET fusion protein with 22 amino acid linker SGLRSGGSGGDEVDGGSGGSNS (SEQ ID NO: 10) containing DEVD (left off: small tags and cut ends; large carriers) |
| 4-5 fold | sensor A: CFP-YFP FRET fusion protein with 16 amino acid linker SGLRSGGDEVDGGSNS (SEQ ID NO: 7) containing the caspase-3 recognition motif (left off: small tags and cut ends; large carriers) |
